Measurements from PubChem BioAssay AID602254 (Broad Institute, 2012).
Screen size: about 1,000 compounds; fewer than 10 were called active.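 Rule for the calls: active = fitted half-maximal concentration no higher than twice the top valid tested dose, with signal falling; inconclusive = flat curve with 30 to 70% inhibition, or poor fit; inactive = the rest.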 The list shows a part of the results. Potency and affinity values are given separately.

The molecules below were run against Golgi-associated PDZ and coiled-coil motif-containing protein (Homo sapiens) (UniProt Q9HD26) (assay: CAL PDZ domain peptide-binding inhibitors, dose response, biochemical, fluorescence polarization, untagged CAL PDZ, cherry-pick, set 2 (AID 602254;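 note: 0% = DMSO neutral control and -100% = unlabeled peptide PRC23 positive control; more negative means stronger blocking of peptide binding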)). Settings: Purified CAL PDZ, TMR peptide fluorescence polarization; at 60 µM (top of the series).

Activity change, negative = inhibition, inactive:
CC(=O)c1c(C)[nH]c(C(=O)COC(=O)c2c(-c3ccccc3)noc2C)c1C 1.61%
COc1cc(-c2noc(CCCC(=O)Nc3cccnc3)n2)cc(OC)c1OC 0.328%
Cc1ccc(NC(=O)c2cc(NC(=O)c3ccccc3C(=O)O)ccc2N2CCCCC2)cc1 2.4%
O=C(NCc1ccncc1)C(=O)N/N=C/c1ccccn1 -0.098%
COc1ccccc1OCCC(=O)OCC(=O)Nc1ccc(Br)cc1F -0.071%
Cn1cccc1C(=O)N1CCc2ccccc2C1 0.348%
COc1cccc(-c2ccnc3[nH]n(-c4ccccc4)c(=O)c23)c1 -0.972%
N#CCc1nn(-c2ccccc2)c2ncnc(N)c12 -0.48%
CC(C)CNC(=O)COC(=O)c1n[nH]c2ccccc12 2.38%
CC(C)CCNC1c2ccccc2C(=O)N1Cc1ccccc1 (stereo not drawn) -1.1%
COc1cccc(N2CCN(CC(=O)NCc3ccccc3)CC2)c1 2.69%
CCOC(=O)C1CCN(C(=O)/C(=C/c2ccccc2)NC(=O)c2ccccc2)CC1 -2.12%
COCCNC(=O)c1ccc(S(=O)(=O)N2CCCc3ccccc32)cc1 -2.82%
COc1ccc(OC(C)C(=O)NCc2cccnc2)cc1 (stereo not drawn) 1.53%
CC(=O)N1CCC(=NNC(=O)c2cc3ccccc3cc2O)CC1 -2.91%
O=C(COC(=O)COc1ccc(Br)cc1)NCC1CCCO1 (stereo not drawn) -4.89%
CN(C(=O)COc1ccc(Cl)cc1Br)C1CCCCC1 3.51%
COc1ccc(OCCSc2nnc(C(C)NC(=O)c3ccccc3F)n2C)cc1 (stereo not drawn) -3.42%
Cc1ncoc1C(=O)NCCC(c1ccccc1)c1ccccc1 -1.22%
O=C(O)C1CCCN1c1nc(-c2ccc(Cl)c(Cl)c2)cc(C(F)(F)F)n1 (stereo not drawn) 3.38%
O=C(O)CCCCCN1C(=O)CCC1=O -0.248%
c1cncc(CSc2ccc(-c3ccc4c(c3)OCO4)nn2)c1 8.45%
Cc1ccnc(NC(=O)c2ccc(Br)s2)c1 1.55%
O=C(NCc1ccccc1Cl)C1CCN(S(=O)(=O)N2CCOCC2)CC1 2%
CCc1ccc(NC(=S)Nn2cnnc2)cc1 2.79%
CC1CC(C)CN(C(=O)CCn2c(=O)oc3ccccc32)C1 (stereo not drawn) 2.08%
CCC(C(=O)OCn1nnc2ccccc2c1=O)c1ccccc1 (stereo not drawn) 5.24%
CC1CCN(C(=O)CNC(=O)c2ccc(Cl)cc2Cl)CC1 -2.7%

Grouped by structure: the entries above with a Cl atom (four)
Activity change, negative = inhibition, inactive:
CN(C(=O)COc1ccc(Cl)cc1Br)C1CCCCC1 3.51%
O=C(O)C1CCCN1c1nc(-c2ccc(Cl)c(Cl)c2)cc(C(F)(F)F)n1 (stereo not drawn) 3.38%
O=C(NCc1ccccc1Cl)C1CCN(S(=O)(=O)N2CCOCC2)CC1 2%
CC1CCN(C(=O)CNC(=O)c2ccc(Cl)cc2Cl)CC1 -2.7%
